Publication PMC5595915
These are yes or no findings as the source states them, for the method shown.

Target: GacS histidine kinase periplasmic detector domain (GacSPD, Met38-Gly164) (Pseudomonas aeruginosa (PAK)) (UniProt G3XD98)
Assay: SEC-MALS; purified GacSPD; estimated molecular weight 15 kDa; conditions not given; both purified

## GacS histidine kinase periplasmic detector domain (GacSPD, Met38-Gly164) (from UniProt G3XD98 38-164) (domain or fragment)
  binding: no binding
